In PubChem BioAssay (Tox21):
Only results without a clear call are listed here; the source files them as inconclusive. Unless noted, the call rests on the fitted dose curve.

Sequences of proteins named here, by UniProt entry; tags and fusion partners are left off.
UniProt P04150, whole entry: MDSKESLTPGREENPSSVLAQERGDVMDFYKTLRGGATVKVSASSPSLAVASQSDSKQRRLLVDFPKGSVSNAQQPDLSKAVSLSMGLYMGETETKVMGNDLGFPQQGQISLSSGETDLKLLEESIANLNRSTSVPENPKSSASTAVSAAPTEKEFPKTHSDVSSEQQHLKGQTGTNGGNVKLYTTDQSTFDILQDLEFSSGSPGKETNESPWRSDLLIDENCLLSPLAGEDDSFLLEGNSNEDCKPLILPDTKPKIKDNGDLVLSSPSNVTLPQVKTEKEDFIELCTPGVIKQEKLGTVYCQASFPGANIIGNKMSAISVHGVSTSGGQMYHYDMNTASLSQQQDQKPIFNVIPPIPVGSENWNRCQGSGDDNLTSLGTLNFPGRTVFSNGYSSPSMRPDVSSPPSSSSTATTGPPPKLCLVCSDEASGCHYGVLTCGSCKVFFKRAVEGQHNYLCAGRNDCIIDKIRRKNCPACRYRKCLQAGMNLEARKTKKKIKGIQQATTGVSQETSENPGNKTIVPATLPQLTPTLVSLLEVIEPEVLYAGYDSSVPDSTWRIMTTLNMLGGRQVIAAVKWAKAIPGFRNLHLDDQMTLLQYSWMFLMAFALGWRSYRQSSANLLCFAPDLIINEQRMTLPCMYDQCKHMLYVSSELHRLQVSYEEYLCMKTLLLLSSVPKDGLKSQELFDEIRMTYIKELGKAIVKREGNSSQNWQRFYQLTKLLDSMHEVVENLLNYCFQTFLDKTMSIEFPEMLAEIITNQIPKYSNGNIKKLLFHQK
UniProt Q96RI1, whole entry: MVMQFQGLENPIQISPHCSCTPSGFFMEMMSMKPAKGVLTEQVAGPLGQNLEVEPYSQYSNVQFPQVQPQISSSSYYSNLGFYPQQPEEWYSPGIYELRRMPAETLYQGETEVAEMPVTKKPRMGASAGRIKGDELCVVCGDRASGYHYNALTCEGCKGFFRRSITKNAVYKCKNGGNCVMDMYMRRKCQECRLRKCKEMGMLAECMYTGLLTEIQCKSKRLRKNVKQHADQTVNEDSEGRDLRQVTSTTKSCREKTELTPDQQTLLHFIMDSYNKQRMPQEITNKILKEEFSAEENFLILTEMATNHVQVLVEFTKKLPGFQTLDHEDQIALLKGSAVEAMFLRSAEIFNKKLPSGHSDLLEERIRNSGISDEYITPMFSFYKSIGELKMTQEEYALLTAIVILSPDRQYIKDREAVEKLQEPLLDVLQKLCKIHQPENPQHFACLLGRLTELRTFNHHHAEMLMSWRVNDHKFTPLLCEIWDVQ
UniProt Q92731, whole entry: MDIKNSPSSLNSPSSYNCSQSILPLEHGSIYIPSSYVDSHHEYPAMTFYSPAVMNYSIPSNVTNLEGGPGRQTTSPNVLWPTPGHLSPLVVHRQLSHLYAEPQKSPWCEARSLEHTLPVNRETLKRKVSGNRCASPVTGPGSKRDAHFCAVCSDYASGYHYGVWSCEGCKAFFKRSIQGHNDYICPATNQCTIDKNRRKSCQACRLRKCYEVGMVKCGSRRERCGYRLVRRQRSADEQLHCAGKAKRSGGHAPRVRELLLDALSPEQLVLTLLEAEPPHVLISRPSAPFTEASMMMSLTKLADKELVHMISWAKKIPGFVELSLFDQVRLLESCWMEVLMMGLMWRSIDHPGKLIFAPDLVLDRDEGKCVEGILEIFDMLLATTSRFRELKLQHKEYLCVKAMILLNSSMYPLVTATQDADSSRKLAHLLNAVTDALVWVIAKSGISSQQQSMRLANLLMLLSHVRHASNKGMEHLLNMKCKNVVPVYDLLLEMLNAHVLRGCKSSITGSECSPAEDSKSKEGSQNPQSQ
UniProt P16473, whole entry: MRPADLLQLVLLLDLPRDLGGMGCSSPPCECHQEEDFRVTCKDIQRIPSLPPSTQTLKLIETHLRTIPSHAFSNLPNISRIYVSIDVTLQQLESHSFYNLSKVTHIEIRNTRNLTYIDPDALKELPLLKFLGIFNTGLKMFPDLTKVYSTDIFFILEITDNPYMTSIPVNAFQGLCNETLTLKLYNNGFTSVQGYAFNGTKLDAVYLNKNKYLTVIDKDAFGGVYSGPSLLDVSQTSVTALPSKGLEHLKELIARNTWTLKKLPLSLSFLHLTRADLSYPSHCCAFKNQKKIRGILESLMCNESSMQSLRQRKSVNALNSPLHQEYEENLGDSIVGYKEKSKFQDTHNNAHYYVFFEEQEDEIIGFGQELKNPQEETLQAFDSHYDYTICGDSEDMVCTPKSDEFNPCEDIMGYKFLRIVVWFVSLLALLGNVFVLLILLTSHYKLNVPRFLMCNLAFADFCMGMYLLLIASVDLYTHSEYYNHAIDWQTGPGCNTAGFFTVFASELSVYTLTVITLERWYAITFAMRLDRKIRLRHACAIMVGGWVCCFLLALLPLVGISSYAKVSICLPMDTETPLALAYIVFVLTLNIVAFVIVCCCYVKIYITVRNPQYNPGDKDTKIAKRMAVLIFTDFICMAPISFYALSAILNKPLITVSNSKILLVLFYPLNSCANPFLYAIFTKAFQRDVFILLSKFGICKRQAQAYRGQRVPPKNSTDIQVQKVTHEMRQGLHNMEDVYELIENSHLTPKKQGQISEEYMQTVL
UniProt P06401, whole entry: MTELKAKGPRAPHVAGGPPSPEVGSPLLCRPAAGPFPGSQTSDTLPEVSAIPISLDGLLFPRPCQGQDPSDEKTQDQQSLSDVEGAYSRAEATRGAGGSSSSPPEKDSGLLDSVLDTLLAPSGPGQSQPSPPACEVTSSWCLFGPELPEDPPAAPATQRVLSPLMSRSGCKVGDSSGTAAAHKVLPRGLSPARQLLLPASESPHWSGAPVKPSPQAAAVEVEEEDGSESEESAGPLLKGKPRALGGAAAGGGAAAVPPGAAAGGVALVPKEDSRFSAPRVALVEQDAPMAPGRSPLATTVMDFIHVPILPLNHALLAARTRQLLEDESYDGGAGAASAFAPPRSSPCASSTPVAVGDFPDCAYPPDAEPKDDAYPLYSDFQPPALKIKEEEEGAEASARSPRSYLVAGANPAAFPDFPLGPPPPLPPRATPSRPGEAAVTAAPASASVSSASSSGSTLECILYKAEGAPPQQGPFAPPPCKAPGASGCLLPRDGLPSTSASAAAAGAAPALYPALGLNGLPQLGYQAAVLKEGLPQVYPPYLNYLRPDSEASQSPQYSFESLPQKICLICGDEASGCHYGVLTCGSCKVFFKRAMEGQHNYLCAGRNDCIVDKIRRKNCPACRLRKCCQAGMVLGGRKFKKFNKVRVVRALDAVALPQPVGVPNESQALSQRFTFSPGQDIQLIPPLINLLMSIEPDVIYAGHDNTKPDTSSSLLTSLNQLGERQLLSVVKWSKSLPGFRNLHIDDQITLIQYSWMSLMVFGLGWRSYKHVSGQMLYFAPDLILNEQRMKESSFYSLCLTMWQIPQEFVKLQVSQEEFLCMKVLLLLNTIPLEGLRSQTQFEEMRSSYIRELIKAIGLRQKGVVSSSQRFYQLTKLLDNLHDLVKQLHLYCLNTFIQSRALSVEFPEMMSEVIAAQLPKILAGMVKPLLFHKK

Tests used:
[1] = qHTS assay for small molecule agonists of the p53 signaling pathway (AID 651631); settings: HCT-116 p53RE-bla reporter, beta-lactamase FRET ratio, 16 h; further: nearly all actives have a fitted effect of over 15% in size
Summary of the method: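 HCT-116 cells carrying a beta-lactamase reporter under p53 response elements were dosed with compound for 16 h at 37 °C. LiveBLAzer B/G FRET substrate was then added for 2 h at room temperature, and fluorescence intensity was read to detect pathway agonism.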

[2] = target: Glucocorticoid receptor (Homo sapiens) (UniProt P04150); experiment: qHTS assay to identify small molecule agonists of the glucocorticoid receptor (GR) signaling pathway (AID 720691; active means well fitted activation curve with a large enough effect in the signal ratio in the repeat runs, not every such curve was filed as active; inconclusive means weak or mixed curves, or effect the other way; inactive means no such curve, though single readings can be large or run the other way; the % refers to the signal ratio); settings: GR-bla HeLa, beta-lactamase reporter ratio, 18 h; activation: at 62.4 µM (top of the series)
[3] = qHTS assay to identify small molecule antagonists of the estrogen receptor alpha (ER-alpha) signaling pathway - cell viability counter screen (AID 743074); settings: ERalpha-bla HEK293 viability, CellTiter-Glo luminescence, 18 h;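 further: HEK293 cells carrying ER-alpha-UAS-bla reporter stimulated with 17beta-estradiol; nearly all actives have a fitted effect of over 45% in size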
[4] = qHTS assay for small molecule agonists of the antioxidant response element (ARE) signaling pathway (AID 743202; active means well fitted activation curve with a large enough effect in the signal ratio in the repeat runs, not every such curve was filed as active; inconclusive means weak or mixed curves, or effect the other way; inactive means no such curve, though single readings can be large or run the other way; the % refers to the signal ratio); settings: HepG2 ARE-bla reporter, beta-lactamase FRET, 16 h
Summary of the method: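 Steps: seed ARE-bla HepG2 cells (2,000/well); incubate 5 h at 37 C; add compounds by pin tool; incubate 16 h at 37 C; add FRET substrate; read fluorescence after 2 h at RT.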

[5] = qHTS assay for small molecule activators of the heat shock response signaling pathway (AID 743210; active means well fitted activation curve with a large enough effect in the signal ratio in the repeat runs, with a control signal flat, not every such curve was filed as active; inconclusive means weak or mixed curves; the % refers to the signal ratio); settings: HeLa HSE-bla reporter, beta-lactamase ratio, 5 h
Summary of the method: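 Activation of heat shock element-controlled beta-lactamase expression is measured in HeLa cells by LiveBLAzer FRET fluorescence, with compound exposure lasting 5 h at 37 C and substrate loading 2.5 h at room temperature.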

[6] = target: Bile acid receptor (Homo sapiens) (UniProt Q96RI1); experiment: qHTS assay to identify small molecule antagonists of the farnesoid-X-receptor (FXR) signaling pathway (AID 743217; active means well fitted inhibition curve with a large enough effect in the signal ratio in the repeat runs, not every such curve was filed as active; inconclusive means weak or mixed curves, or effect the other way; inactive means no such curve, though single readings can be large or run the other way; the % refers to the signal ratio); settings: HEK293T FXR-UAS-bla, beta-lactamase ratio, CDCA-stimulated, 16 h; series mostly up to 81.1 µM
Summary of the method: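 FRET fluorescence after 2 h room-temperature LiveBLAzer loading gives the readout. Prior step: FXR-bla HEK 293T cells, seeded and incubated 5 h, received test compounds plus 50 uM final CDCA for 16 h at 37 °C.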

[7] = target: Bile acid receptor (Homo sapiens) (UniProt Q96RI1); experiment: qHTS assay to identify small molecule agonists of the farnesoid-X-receptor (FXR) signaling pathway (AID 743220; active means well fitted activation curve with a large enough effect in the signal ratio in the repeat runs, not every such curve was filed as active; inconclusive means weak or mixed curves, or effect the other way; the % refers to the signal ratio); settings: HEK293T FXR-UAS-bla, beta-lactamase FRET ratio, 16 h
[8] = qHTS assay to identify small molecule agonists of the NFkB signaling pathway (AID 1159509; active means well fitted curve in the direction sought with a large enough effect in the signal ratio in the repeat runs, not every such curve was filed as active; inconclusive means weak or mixed curves, or a change in a side signal; inactive means no such curve, though single readings can be large or run the other way; the % refers to the signal ratio); settings: NFkB-bla ME-180 cells, beta-lactamase FRET ratio, 5 h
Summary of the method: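 Agonist activity was read as beta-lactamase-driven FRET change (460 and 530 nm emission, 405 nm excitation) following 1.5 hr substrate loading at room temperature. Beforehand, ME-180 NFkB-bla reporter cells were treated with compounds for 5 hr at 37 C.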

[9] = qHTS assay to identify small molecule agonists of the endoplasmic reticulum stress response signaling pathway (AID 1159516; active means well fitted activation curve with a large enough effect in the signal ratio in the repeat runs, not every such curve was filed as active; inconclusive means weak or mixed curves, or effect the other way; the % refers to the signal ratio); settings: ESRE-bla HeLa, ER stress beta-lactamase reporter, 5 h
Summary of the method: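 Beta-lactamase expression from the ER stress response element in HeLa reporter cells is quantified with the LiveBLAzer B/G FRET substrate, read at 405 nm excitation after 2 hr at room temperature, following 5 hr compound treatment at 37 C.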

[10] = qHTS assay to identify small molecule agonists of the endoplasmic reticulum stress response signaling pathway - cell viability counter screen (AID 1159517); settings: ESRE-bla HeLa viability, CellTiter-Glo luminescence, 5 h; further: nearly all actives have a fitted effect of over 50% in size
Summary of the method: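 Cpd-treated ESRE-bla HeLa (5 hr, 37 C) → LiveBLAzer 2 hr RT → CellTiter-Glo 30 min RT → luminescence.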

[11] = qHTS assay to identify small molecule antagonists of the retinoid acid receptor (RAR) signaling pathway - cell viability counter screen (AID 1159551; active means well fitted curve in the direction sought with a large enough effect in the repeat runs; inconclusive means weak or mixed curves; inactive means no such curve, though single readings can be large; an effect the other way counts as inactive or inconclusive; further: nearly all actives have a fitted effect of over 35% in size); settings: C3RL4 cells viability, ATP luminescence (CellTiter-Glo), 6 h
Summary of the method: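 Viability of C3RL4 cells is quantified from ATP by luminescence after 6 h treatment at 37 C with compounds and 1 uM retinol.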

[12] = qHTS assay to identify small molecule agonists of H2AX (AID 1224845; active means well fitted activation curve with a large enough effect in the signal ratio in the repeat runs, not every such curve was filed as active; inconclusive means weak or mixed curves; the % refers to the signal ratio); settings: CHO-K1 phospho-H2AX Ser139 HTRF, 3 h
Summary of the method: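 Wild-type CHO-K1 cells plated overnight, then exposed 3 hr at 37C to compounds at 15 concentrations (0.76% DMSO). Lysed, then HTRF anti-pH2AX(S139)-cryptate/anti-H2AX-d2 detection after 24 hr at room temperature; emissions 665 and 620 nm.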

[13] = qHTS assay to identify small molecule HDAC inhibitors (AID 1259364; active means well fitted curve in the direction sought with a large enough effect in the repeat runs; inconclusive means weak or mixed curves; inactive means no such curve, though single readings can be large; an effect the other way counts as inactive or inconclusive;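 further: wild-type HCT-116 cells with endogenous class I/II HDAC activity; nearly all actives have a fitted effect of over 45% in size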); settings: HCT-116 HDAC-Glo I/II luminescence, 2 h
Summary of the method: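 After a 2 hr compound incubation (37C, 5% CO2), HCT-116 cells seeded at 1,500/well the day before received HDAC-Glo reagent; signal read as luminescence after 30 min at room temperature.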

[14] = qHTS assay to identify small molecule HDAC inhibitors - cell viability counter screen (AID 1259365; active means well fitted curve in the direction sought with a large enough effect in the repeat runs; inconclusive means weak or mixed curves; inactive means no such curve, though single readings can be large; an effect the other way counts as inactive or inconclusive; further: nearly all actives have a fitted effect of over 50% in size); settings: HCT-116 viability, CellTiter-Glo ATP luminescence, 2 h
Summary of the method: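 Wild-type HCT-116 cells, 1,500/well, cultured overnight, then compound-treated 2 h at 37 C. Viability measured as ATP luminescence with CellTiter-Glo after 30 min at room temperature.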

[15] = qHTS assay to identify small molecule antagonists of the sonic hedgehog signaling (Shh) pathway (AID 1259369); settings: NIH/3T3 Gli1-Luc reporter, Shh antagonist, luminescence 24 h; further: nearly all actives have a fitted effect of over 45% in size
Summary of the method: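 Gli1 transcriptional reporter (firefly Luc) in NIH/3T3 background, conditioned-medium activated. 24hr exposure, luminescence endpoint.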

[16] = target: Estrogen receptor beta (Homo sapiens) (UniProt Q92731); experiment: qHTS assay to identify small molecule antagonists of the estrogen receptor beta (ER-beta) signaling pathway (AID 1259378; active means well fitted inhibition curve with a large enough effect in the signal ratio in the repeat runs, not every such curve was filed as active; inconclusive means weak or mixed curves, or effect the other way; inactive means no such curve, though single readings can be large or run the other way; the % refers to the signal ratio); settings: ER-beta-UAS-bla HEK293T, beta-lactamase FRET ratio, 16 h
Summary of the method: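 ER-beta-UAS-bla HEK293T (GripTite) cells in 2% charcoal-stripped FBS medium were preincubated 6 hr at 37C, dosed with compound, then stimulated with 1 nM E2 (final) for 16 hr; beta-lactamase reporter read by B/G FRET fluorescence after 2 hr substrate loading.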

[17] = target: Thyrotropin receptor (Homo sapiens) (UniProt P16473); experiment: qHTS assay to identify small molecule antagonists of the thyroid stimulating hormone receptor (TSHR) signaling pathway (AID 1259385); settings: TSHR-HEK293 cAMP HTRF, TSH-stimulated antagonist mode; further: nearly all actives have a fitted effect of over 20% in size
[18] = target: Progesterone receptor (Homo sapiens) (UniProt P06401); experiment: qHTS assay to identify small molecule agonists of the progesterone receptor (PR) signaling pathway (AID 1346784); settings: PR-UAS-bla HEK293T, beta-lactamase FRET ratio, 16 h; further: nearly all actives have a fitted effect of over 30% in size
Summary of the method: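 PR-UAS-bla HEK 293T cells (beta-lactamase reporter under UAS) in 2% charcoal-stripped FBS, dosed with 23 nL compound after 6 hr, incubated 16hr at 37C. LiveBLAzer B/G FRET substrate added, fluorescence read after 2 hours.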

[19] = qHTS assay to identify small molecule agonists of the TGF-beta/Smad signaling pathway - cell viability counter screen (AID 1346829; active means well fitted curve in the direction sought with a large enough effect in the repeat runs; inconclusive means weak or mixed curves; inactive means no such curve, though single readings can be large; an effect the other way counts as inactive or inconclusive; further: nearly all actives have a fitted effect of over 45% in size); settings: SBE-bla HEK293T viability, CellTiter-Glo luminescence, 5 h
Summary of the method: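 CellTiter-Glo luminescence readout; SBE-bla HEK 293T cells, overnight plating, compound 5 hr at 37 C/5% CO2, then bla substrate 2 hr RT, then CellTiter-Glo 30 min RT.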

[20] = Caspase-3/7 induction in HepG2 cells by small molecules, qHTS assay (AID 1346978; active means well fitted curve in the direction sought with a large enough effect in the repeat runs; inconclusive means weak or mixed curves; inactive means no such curve, though single readings can be large; an effect the other way counts as inactive or inconclusive; further: nearly all actives have a fitted effect of over 15% in size); settings: HepG2 caspase-3/7 activation, Caspase-Glo luminescence, 17 h
Summary of the method: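 Wild-type HepG2 cells (2,000/well) were settled 5 h at 37 C, 5% CO2, then exposed to compounds in DMSO for 17 h. Caspase-3/7 activity was read by luminescence 30 min after adding Caspase-Glo 3/7 reagent at room temperature.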

Measured: Potency
Potency means the concentration at half of the fitted maximal effect.

N#CSc1ccc([N+](=O)[O-])cc1[N+](=O)[O-]
inconclusive: [1] 30.6 µM | [2] 61.6 µM | [3] 43.6 µM | [4] 17.2 µM | [5] 16.1 µM | [6] 12.3 µM | [7] 13.8 µM | [8] 17.4 µM | [9] 24.5 µM | [10] 54.9 µM | [11] 68.6 µM | [12] 17.9 µM | [13] 27.3 µM | [14] 68.6 µM | [15] 4.86 µM | [16] 24.3 µM | [17] 68.6 µM | [18] 27.3 µM | [19] 54.9 µM | [20] 27.3 µM
